Source: PubChem BioAssay (EPA / NIEHS)
“And” between values parts separate entries of the source, which are not always exact repeats. Equal values may be shown once. This list was built around the results that the source calls inconclusive (neither active nor inactive); the mix of calls is not that of the screen. A potency beside an inconclusive call is a rough fit, not a confirmed value. The source holds several records for some structures; these can differ, active in one and inactive in another. The source made the active and inactive calls. The calls were made as follows: active = hit-call score of the fitted dose curve at least 0.9, where 1 is the maximum; inconclusive = response in the unintended direction; inactive = score below 0.9.

Sequences of proteins named here, by UniProt entry; tags and fusion partners are left off. A change or cut given only in a name is not applied to a line headed by its entry.
UniProt P19793: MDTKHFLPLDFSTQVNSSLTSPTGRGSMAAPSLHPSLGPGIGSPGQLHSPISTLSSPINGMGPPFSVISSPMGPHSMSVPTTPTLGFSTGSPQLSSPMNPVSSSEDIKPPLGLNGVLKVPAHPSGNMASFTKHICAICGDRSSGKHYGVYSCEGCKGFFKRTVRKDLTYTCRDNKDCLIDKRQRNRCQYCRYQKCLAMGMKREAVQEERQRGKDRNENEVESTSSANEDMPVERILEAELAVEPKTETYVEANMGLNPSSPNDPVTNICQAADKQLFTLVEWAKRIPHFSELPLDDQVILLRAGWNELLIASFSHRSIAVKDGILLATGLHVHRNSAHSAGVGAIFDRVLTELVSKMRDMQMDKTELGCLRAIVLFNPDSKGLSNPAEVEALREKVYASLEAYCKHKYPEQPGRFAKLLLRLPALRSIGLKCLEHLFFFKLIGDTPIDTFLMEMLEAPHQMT
UniProt P04637, whole entry, looked up: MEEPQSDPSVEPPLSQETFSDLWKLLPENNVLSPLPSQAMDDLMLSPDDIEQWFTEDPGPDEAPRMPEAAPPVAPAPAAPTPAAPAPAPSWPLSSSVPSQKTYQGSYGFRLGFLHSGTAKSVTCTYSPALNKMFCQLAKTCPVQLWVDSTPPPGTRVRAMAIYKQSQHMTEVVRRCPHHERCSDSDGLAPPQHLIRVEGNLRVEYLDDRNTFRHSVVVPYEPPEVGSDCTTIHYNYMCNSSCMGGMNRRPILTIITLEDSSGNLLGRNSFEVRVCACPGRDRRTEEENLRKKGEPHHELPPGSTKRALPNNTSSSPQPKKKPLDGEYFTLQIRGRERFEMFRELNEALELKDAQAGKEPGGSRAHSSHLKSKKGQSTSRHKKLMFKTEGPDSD
UniProt P37231: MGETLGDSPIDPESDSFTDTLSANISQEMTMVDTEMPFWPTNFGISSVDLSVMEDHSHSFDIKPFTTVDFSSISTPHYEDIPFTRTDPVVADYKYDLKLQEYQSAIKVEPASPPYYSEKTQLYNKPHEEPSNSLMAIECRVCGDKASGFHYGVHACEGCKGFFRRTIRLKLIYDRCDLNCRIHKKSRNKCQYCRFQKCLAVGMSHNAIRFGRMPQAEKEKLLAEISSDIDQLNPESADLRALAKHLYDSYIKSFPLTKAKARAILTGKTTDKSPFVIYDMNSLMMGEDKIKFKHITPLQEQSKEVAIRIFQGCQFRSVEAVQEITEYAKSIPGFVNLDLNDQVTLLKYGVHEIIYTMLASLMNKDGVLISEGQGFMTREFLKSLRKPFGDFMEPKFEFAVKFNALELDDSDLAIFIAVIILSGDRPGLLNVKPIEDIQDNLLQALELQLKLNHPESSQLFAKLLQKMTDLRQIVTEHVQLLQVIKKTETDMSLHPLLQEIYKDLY

Experiments:
[1] = biological target: Retinoic acid receptor RXR-alpha (Homo sapiens) (UniProt P19793); assay: OT_NURR1_NURR1RXRa_0480: Odyssey Thera (OT) 8-hour HEK293T Protein Complementation Assay for Nurr1/retinoid X receptor (RXR) (AID 2283385)
In short: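 HEK293T cells expressing Nurr1 and RXRα fused to reporter fragments (protein-fragment complementation); fluorescence measured 8 h after dosing. Gain of signal fitted relative to DMSO.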

[2] = TOX21_p53_BLA_p2_viability: Viability Assessment in the Tox21 HCT-116 p53 Agonism Beta-lactamase Assay, Phase 2 (AID 2283591);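 also: compound exposure lasted 16 h at 37 °C; actives lower the ATP signal meaning cytotoxicity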
In short: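 Cytotoxicity readout: CellTiter-Glo ATP luminescence, 30 min at room temperature, after the beta-lactamase read. Cells were HCT116 exposed 16 h at 37C to compounds pin-transferred at 217-fold dilution from DMSO stocks.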

[3] = biological target: Cellular tumor antigen p53 (Homo sapiens) (UniProt P04637); assay: TOX21_p53_BLA_p2_ratio: Tox21 HCT-116 p53 Agonism Beta-lactamase Assay, Ratio, Phase 2 (AID 2283592)
In short: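 HCT-116 cells with p53-responsive beta-lactamase reporter, 4000 cells/well, preincubated 5 h, then compound in DMSO (217-fold dilution) for 16 h at 37C. CCF4-AM substrate 2 h at room temperature; 460/530 nm emission ratio fitted upward versus DMSO.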

[4] = TOX21_p53_BLA_p3_viability: Viability Assessment in the Tox21 HCT-116 p53 Agonism Beta-lactamase Assay, Phase 3 (AID 2283593);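 also: cells exposed to compound for 16 h before reading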
In short: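 Cellular ATP was quantified by CellTiter-Glo luminescence, read after 30 min at room temperature. Beforehand, HCT116 cells (4000/well) received compound 5 h post-seeding, 217-fold diluted from DMSO, then incubated 16 h at 37C.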

[5] = biological target: Cellular tumor antigen p53 (Homo sapiens) (UniProt P04637); assay: TOX21_p53_BLA_p3_ratio: Tox21 HCT-116 p53 Agonism Beta-lactamase Assay, Ratio, Phase 3 (AID 2283596)
In short: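 HCT116 p53-bla cells (4000/well) given compound in DMSO (217-fold dilution) after 5 h, incubated 16 h at 37C. CCF4-AM substrate 2 h at room temperature; 460/530 nm emission ratio, gain fitted against DMSO.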

[6] = TOX21_p53_BLA_p4_viability: Viability Assessment in the Tox21 HCT-116 p53 Agonism Beta-lactamase Assay, Phase 4 (AID 2283597);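 also: hits lower the luminescence signal meaning cytotoxicity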
In short: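 HCT-116 p53-bla cells, 4000/well, dosed after 5 h attachment and incubated 16 h at 37 °C, 5% CO2. Viability from CellTiter-Glo ATP luminescence after 30 min at room temperature, taken after the beta-lactamase read; loss of signal indicates cytotoxicity.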

[7] = biological target: Cellular tumor antigen p53 (Homo sapiens) (UniProt P04637); assay: TOX21_p53_BLA_p5_ratio: Tox21 HCT-116 p53 Agonism Beta-lactamase Assay, Ratio, Phase 5 (AID 2283599)
In short: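 Beta-lactamase reporter ratio (blue 460 nm over green 530 nm, 405 nm excitation) after 2 h CCF4-AM loading, in HCT-116 cells exposed 16 h at 37 C to compounds pinned at 217-fold dilution. Increases relative to DMSO baseline scored.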

[8] = biological target: Cellular tumor antigen p53 (Homo sapiens) (UniProt P04637); assay: TOX21_p53_BLA_p4_ratio: Tox21 HCT-116 p53 Agonism Beta-lactamase Assay, Ratio, Phase 4 (AID 2283601)
In short: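 Signal is the blue/green (460nm/530nm) ratio of cleaved versus uncleaved CCF4-AM substrate, read after 2 h substrate loading. Cells were HCT116 carrying the p53-responsive beta-lactamase reporter, dosed 16 h at 37C, 5% CO2; CellTiter-Glo measured in parallel.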

[9] = biological target: Peroxisome proliferator-activated receptor gamma (Homo sapiens) (UniProt P37231); assay: OT_PPARg_PPARgSRC1_0480: Odyssey Thera (OT) 8-hour Protein-Complementation Assay for Peroxisome Proliferator-activated Receptor Gamma / SRC-1 Co-activator (AID 2283387);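 also: nuclear to cytoplasmic split Venus YFP fluorescence ratio reporting PPARg SRC-1 interaction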
In short: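 Protein-fragment complementation of split Venus YFP reports PPARg/SRC-1 interaction in HEK293T (transfected 48 h before treatment), exposed 8 h. Readout: N/C fluorescence ratio at 488 nm from imaging, Draq5 for segmentation, positive fit relative to DMSO.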

[10] = biological target: Retinoic acid receptor RXR-alpha (Homo sapiens) (UniProt P19793); assay: OT_NURR1_NURR1RXRa_1440: Odyssey Thera (OT) 24-hour HEK293T Protein Complementation Assay for Nurr1/retinoid X receptor (RXR) (AID 2283386)
In short: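 HEK293T protein-fragment complementation of Nurr1 and RXRα fused to reporter fragments; compounds 24 h. Fluorescence gain from reconstituted reporter fitted versus DMSO.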

[11] = ATG_XTT_Cytotoxicity: Cytotoxicity Assessment in the Attagene TRANS-FACTORIAL HepG2 Assay (AID 2283584);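 also: XTT signal for cell number as viability in transfected HepG2 cells; cells exposed to compound for 24 h before reading; active means loss of viability signal versus DMSO baseline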
In short: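 HepG2 cells transiently transfected with GAL4-UAS multiple reporter units, dosed 24 h; cytotoxicity read by XTT as loss of signal versus DMSO baseline.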

[12] = TOX21_p53_BLA_p5_viability: Viability Assessment in the Tox21 HCT-116 p53 Agonism Beta-lactamase Assay, Phase 5 (AID 2283600)
In short: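 HCT-116 p53 beta-lactamase reporter cells, 4000/well, were exposed to compound (pin transfer, 217-fold dilution) for 16 hours at 37C. Cellular ATP was read by CellTiter-Glo luminescence after 30 min at room temperature.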

Measured: AC50

O=[N+]([O-])c1ccccc1O
inconclusive: [1] 50 µM | [2] 46.1 µM | [3] 46 µM | [4] 46.1 µM | [5] 46.1 µM and 74.5 µM | [6] 46 µM and 28.5 µM | [7] 46.1 µM | [8] 46.1 µM
inactive: [2] | [3] | [6] | [8]

CCC(=O)C(CC(C)N(C)C)(c1ccccc1)c1ccccc1 (stereo not drawn)
inconclusive: [1] 11.7 µM | [9] 36.2 µM | [8] 69.8 µM

O=CNC(N1CCN(C(NC=O)C(Cl)(Cl)Cl)CC1)C(Cl)(Cl)Cl (stereo not drawn)
inactive: [1] | [7]
inconclusive: [10] 50 µM | [2] 0.00159 µM | [4] 46.1 µM

CNC(=O)Oc1cccc2c1OC(C)(C)C2
inconclusive: [11] 100 µM | [2] 1.21 µM | [3] 46.9 µM | [4] 46.9 µM | [5] 46.1 µM | [6] 46.1 µM and 46.9 µM | [7] 46.1 µM | [12] 46.9 µM | [8] 46.9 µM
inactive: [1] | [4]

COP(=S)(OC)SCn1nnc2ccccc2c1=O
inactive: [12]
active: [3] 73.9 µM | [8] 43.5 µM
inconclusive: [1] 50 µM and 24.9 µM | [10] 50 µM and 20.1 µM | [2] 45.3 µM

c1cc2c3c(cccc3c1)CC2
inconclusive: [1] 50 µM | [11] 19.8 µM | [2] 47 µM | [3] 46.1 µM and 47 µM | [4] 46.1 µM and 47 µM | [6] 47 µM | [7] 46.1 µM

CC[C@H](C)[C@H]1O[C@]2(C=C[C@@H]1C)C[C@@H]1C[C@@H](C/C=C(\C)[C@@H](O[C@H]3C[C@H](OC)[C@@H](O[C@H]4C[C@H](OC)[C@@H](NC)[C@H](C)O4)[C@H](C)O3)[C@@H](C)/C=C/C=C3\CO[C@@H]4[C@H](O)C(C)=C[C@@H](C(=O)O1)[C@]34O)O2
active: [2] 13.5 µM | [3] 59.1 µM | [4] 14.4 µM | [5] 54.1 µM | [6] 8.89 µM | [7] 56.9 µM | [12] 14.9 µM | [8] 32.7 µM
inconclusive: [1] 7.3 µM and 7.27 µM
inactive: [9]

CC(C)c1ccc(O)cc1
inconclusive: [1] 50 µM | [11] 100 µM | [2] 86.7 µM | [3] 74.5 µM | [4] 46.1 µM | [6] 87.1 µM

N#CCC#N
inactive: [2] | [7]
inconclusive: [1] 50 µM | [10] 50 µM | [4] 83.8 µM | [6] 34.5 µM

C[N+](C)(C)CC1CO1 (stereo not drawn)
inconclusive: [1] 50 µM | [10] 9.92 µM | [6] 46.1 µM
inactive: [4]

COc1cc(C=O)cc2c1[C@H](COC(N)=O)[C@]1(OC(C)=O)ON2C[C@H]2[C@@H]1N2C(C)=O
active: [3] 0.249 µM | [5] 0.56 µM | [7] 0.546 µM
inconclusive: [1] 9.06 µM | [10] 6.28 µM | [12] 83.5 µM
inactive: [2]

CCC1(c2ccccc2)C(=O)N=C(O)NC1=O (stereo not drawn)
inactive: [5] | [6]
inconclusive: [1] 15.8 µM | [10] 11.5 µM | [4] 7.37 µM | [7] 45.1 µM | [12] 1.42 µM

CC(C)(C)C(=O)C(Oc1ccc(Cl)cc1)n1cncn1 (stereo not drawn)
active: [7] 86 µM
inactive: [2] | [3] | [12]
inconclusive: [1] 50 µM | [10] 26.6 µM and 50 µM | [8] 46 µM

O=C(N[C@H]1CN2CCC1CC2)c1cc2ccoc2cn1
inactive: [1] | [2] | [3] | [5] | [6] | [8]
inconclusive: [10] 50 µM

O=C(NC(=O)c1c(F)cccc1F)Nc1cc(Cl)c(OC(F)(F)C(F)F)c(Cl)c1
not listed: [3] | [8] | [9] | [11]
inactive: all other assays above

Nc1cc(Cl)cc(C(=O)O)c1Cl
inconclusive: [1] 30 nM and 50 µM | [10] 2.49 µM and 50 µM | [3] 45.8 µM | [6] 46.1 µM | [12] 45.8 µM
inactive: [4] | [6]
